Data reported in the supplement of paper PMC12873370.
Where “and” joins values, the source holds several entries; their conditions need not be identical. Equal values may be shown once. Some of the results follow. Repeats are few or missing, and single values can be far off.

Assays:
[1] = tested on: MEPP (mouse ovarian epithelium Trp53/Pten KO); test: cell viability relative to untreated (fraction); higher = less growth inhibition; details: 5 µM; 3 days
[2] = tested on: PREPP (mouse prostate epithelium Trp53/Pten KO); test: as above; details: 5 µM; 3 days

Compound	cell viability [1]	cell viability [2]
Nc1nc2n[nH]nc2c(=O)[nH]1	0.532	0.324
CC(=O)Nc1ccc(O)cc1	0.729	0.963
COc1ccc2cc1Oc1ccc(cc1)C[C@H]1c3cc(c(OC)cc3CCN1C)Oc1c(OC)c(OC)cc3c1[C@H](C2)N(C)CC3	0.544	0.917
CCCCCCCCCCCCCCCCC(=O)O	1.01	0.987
CC(=O)/C(C)=N/O	0.945	1.01
NC(=O)c1cc[n+](CC2=C(C(=O)[O-])N3C(=O)[C@@H](NC(=O)[C@@H](c4ccccc4)S(=O)(=O)O)[C@H]3SC2)cc1	0.965	0.981
O=C1Cc2ccccc2N1	0.835	0.856
O=C(O)[C@@H](O)Cc1ccccc1	0.944	0.908
COc1cc(C=O)ccc1OC(C)=O	0.908	1.09
C[Se]CC[C@H](N)C(=O)O	1.03	0.76
Nc1ncnc2c1ncn2[C@@H]1O[C@H](COP(=O)(O)OP(=O)(O)O)[C@@H](O)[C@H]1O	1.01	0.942
Nc1ccn([C@H]2C[C@H](O)[C@@H](CO)O2)c(=O)n1	0.896	0.89
C=CCc1ccc(O)c(OC)c1	0.875	1.05
NC(=O)c1ccc[n+]([C@@H]2O[C@H](COP(=O)([O-])O)[C@@H](O)[C@H]2O)c1	1.15	0.889
O=c1ccn2c(n1)O[C@H]1[C@H](O)[C@@H](CO)O[C@H]12	0.962	0.859
COc1cc(O)c2c(c1)oc(=O)c1c3cc(O)c(O)cc3oc21	1	0.886
OCc1c[nH]c2ccccc12	0.796	0.871
NCCCS(=O)(=O)O	0.847	0.829
COc1cc(O)c2c(c1)C(=O)c1cc(C)cc(O)c1C2=O	0.781	1.48
COc1ccc(-c2coc3cc(O[C@@H]4O[C@H](CO)[C@@H](O)[C@H](O)[C@H]4O)ccc3c2=O)cc1O	1.43	0.883
O=C(/C=C/c1ccc(O)c(O)c1/C=C/c1ccc(O)c(O)c1)O[C@H](Cc1ccc(O)c(O)c1)C(=O)O	1.39	1.23
CC1(C)C(O[C@@H]2OC[C@@H](O)[C@H](O)[C@H]2O)CC[C@]23CC24CC[C@]2(C)[C@@H]([C@@]5(C)CC[C@@H](C(C)(C)O)O5)[C@H](O)C[C@@]2(C)C4C[C@@H](O[C@@H]2O[C@H](CO)[C@@H](O)[C@H](O)[C@H]2O)C13 (stereo not given in full)	0.806	1.06
CCCCCCCCCC(C)=O	1.05	1.05
CC12CCC(C1)C(C)(C)C2=O (stereo not given)	0.942	0.982
CS(=O)(=O)c1ccc([C@@H](O)[C@@H](CO)NC(=O)C(Cl)Cl)cc1	1	1.2
N=C(N/N=C/c1ccc(Cl)cc1)N/N=C/c1ccc(Cl)cc1	1.11	0.849
COc1cc(O)c(CC=C(C)C)c(O)c1C(=O)/C=C/c1ccc(O)cc1	1.09	0.92
CCCCCCCCCCC[C@@H](C[C@@H]1OC(=O)[C@H]1CCCCCC)OC(=O)[C@H](CC(C)C)NC=O	1.15	1.03
COc1ccc(-c2cc(=O)c3c(OC)c(OC)c(OC)c(OC)c3o2)cc1	1.01	0.913
CC[C@H]1OC(=O)[C@H](C)[C@@H](O[C@H]2C[C@@](C)(OC)[C@@H](O)[C@H](C)O2)[C@H](C)[C@@H](O[C@@H]2O[C@H](C)C[C@H](N(C)C)[C@H]2O)[C@](C)(O)C[C@@H](C)CN(C)[C@H](C)[C@@H](O)[C@]1(C)O	0.869 and 0.947	0.949 and 0.796

Part of the list above in order of length of the SMILES, smallest number first.
Compound	cell viability [1]	cell viability [2]
CC12CCC(C1)C(C)(C)C2=O (stereo not given)	0.942	0.982
COc1ccc(-c2cc(=O)c3c(OC)c(OC)c(OC)c(OC)c3o2)cc1	1.01	0.913
O=C(/C=C/c1ccc(O)c(O)c1/C=C/c1ccc(O)c(O)c1)O[C@H](Cc1ccc(O)c(O)c1)C(=O)O	1.39	1.23
